Laboratory results published in the supplement of paper PMC7666118.
The other results are listed elsewhere or left out.

By UniProt entry, the sequences of proteins in these tests, tags left out. Where a name states a change or a piece, a line headed by the entry shows the natural chain unless it says otherwise.
UniProt P09669, whole entry: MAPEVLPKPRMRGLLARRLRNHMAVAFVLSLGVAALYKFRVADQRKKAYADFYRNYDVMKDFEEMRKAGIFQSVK
UniProt Q7L2Z9: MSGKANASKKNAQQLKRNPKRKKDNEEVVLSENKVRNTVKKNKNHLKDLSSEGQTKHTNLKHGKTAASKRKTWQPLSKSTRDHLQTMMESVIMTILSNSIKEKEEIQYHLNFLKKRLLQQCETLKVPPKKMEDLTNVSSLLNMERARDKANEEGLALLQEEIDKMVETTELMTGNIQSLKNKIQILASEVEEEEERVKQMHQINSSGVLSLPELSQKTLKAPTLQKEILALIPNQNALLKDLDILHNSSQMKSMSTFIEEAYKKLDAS
UniProt Q14011: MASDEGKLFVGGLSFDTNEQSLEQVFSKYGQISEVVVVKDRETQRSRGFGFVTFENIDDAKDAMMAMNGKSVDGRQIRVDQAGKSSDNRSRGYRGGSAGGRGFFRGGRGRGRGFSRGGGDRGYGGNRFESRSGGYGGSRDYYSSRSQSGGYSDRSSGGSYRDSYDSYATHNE
UniProt Q9Y696: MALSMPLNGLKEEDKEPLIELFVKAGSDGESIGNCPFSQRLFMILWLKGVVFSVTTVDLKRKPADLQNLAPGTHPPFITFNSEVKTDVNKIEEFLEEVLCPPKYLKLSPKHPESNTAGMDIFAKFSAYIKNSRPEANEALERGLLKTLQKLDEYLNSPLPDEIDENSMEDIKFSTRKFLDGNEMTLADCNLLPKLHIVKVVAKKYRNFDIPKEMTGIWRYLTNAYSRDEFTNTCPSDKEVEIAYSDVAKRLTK
UniProt O14578, whole entry: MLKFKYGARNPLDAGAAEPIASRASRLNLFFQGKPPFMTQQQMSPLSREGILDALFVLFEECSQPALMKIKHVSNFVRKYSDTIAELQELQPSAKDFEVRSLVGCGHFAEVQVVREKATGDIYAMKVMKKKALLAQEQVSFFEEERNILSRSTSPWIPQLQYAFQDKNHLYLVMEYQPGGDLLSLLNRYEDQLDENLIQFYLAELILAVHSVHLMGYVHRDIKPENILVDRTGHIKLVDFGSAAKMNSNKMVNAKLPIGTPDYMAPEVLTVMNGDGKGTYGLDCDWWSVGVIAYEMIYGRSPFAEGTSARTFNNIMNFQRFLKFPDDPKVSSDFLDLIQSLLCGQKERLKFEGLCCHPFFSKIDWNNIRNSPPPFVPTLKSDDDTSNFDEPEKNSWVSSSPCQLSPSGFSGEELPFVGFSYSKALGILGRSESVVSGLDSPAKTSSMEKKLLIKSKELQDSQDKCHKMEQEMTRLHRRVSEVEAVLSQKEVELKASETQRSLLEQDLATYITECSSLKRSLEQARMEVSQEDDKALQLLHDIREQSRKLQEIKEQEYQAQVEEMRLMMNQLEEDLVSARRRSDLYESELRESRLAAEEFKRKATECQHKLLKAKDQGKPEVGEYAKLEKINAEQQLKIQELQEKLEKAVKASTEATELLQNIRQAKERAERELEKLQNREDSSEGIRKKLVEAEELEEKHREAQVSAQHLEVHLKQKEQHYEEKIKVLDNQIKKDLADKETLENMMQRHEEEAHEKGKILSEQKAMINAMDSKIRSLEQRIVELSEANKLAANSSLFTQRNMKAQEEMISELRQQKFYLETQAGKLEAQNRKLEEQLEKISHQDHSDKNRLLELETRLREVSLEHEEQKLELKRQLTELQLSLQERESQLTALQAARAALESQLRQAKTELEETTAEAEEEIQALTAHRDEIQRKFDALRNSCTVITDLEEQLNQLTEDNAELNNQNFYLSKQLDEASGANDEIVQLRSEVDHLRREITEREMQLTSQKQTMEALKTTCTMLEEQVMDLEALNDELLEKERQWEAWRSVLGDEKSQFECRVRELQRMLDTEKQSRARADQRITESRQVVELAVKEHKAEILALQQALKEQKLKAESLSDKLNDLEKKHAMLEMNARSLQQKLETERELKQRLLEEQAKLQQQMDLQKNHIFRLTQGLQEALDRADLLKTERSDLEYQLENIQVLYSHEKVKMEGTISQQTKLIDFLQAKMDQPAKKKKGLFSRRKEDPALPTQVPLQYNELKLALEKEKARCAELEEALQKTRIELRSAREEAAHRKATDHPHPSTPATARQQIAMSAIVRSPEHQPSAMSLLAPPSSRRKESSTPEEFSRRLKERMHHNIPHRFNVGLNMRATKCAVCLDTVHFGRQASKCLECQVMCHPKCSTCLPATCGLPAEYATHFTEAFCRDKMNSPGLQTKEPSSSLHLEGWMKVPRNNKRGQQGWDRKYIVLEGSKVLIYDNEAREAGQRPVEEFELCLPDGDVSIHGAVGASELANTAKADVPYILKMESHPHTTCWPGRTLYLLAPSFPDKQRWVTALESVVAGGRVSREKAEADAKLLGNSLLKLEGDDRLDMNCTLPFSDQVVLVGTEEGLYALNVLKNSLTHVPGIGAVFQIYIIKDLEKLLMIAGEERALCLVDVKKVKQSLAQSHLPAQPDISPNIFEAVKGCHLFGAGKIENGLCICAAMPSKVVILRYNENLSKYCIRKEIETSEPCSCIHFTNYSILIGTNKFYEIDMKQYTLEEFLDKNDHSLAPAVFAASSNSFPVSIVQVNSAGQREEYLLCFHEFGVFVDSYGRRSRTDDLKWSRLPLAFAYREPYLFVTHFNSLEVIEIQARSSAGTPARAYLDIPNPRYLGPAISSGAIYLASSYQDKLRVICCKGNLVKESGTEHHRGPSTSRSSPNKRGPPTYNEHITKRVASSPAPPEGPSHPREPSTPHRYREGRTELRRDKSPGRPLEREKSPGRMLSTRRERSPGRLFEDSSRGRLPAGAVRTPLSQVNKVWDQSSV
UniProt O76031, whole entry: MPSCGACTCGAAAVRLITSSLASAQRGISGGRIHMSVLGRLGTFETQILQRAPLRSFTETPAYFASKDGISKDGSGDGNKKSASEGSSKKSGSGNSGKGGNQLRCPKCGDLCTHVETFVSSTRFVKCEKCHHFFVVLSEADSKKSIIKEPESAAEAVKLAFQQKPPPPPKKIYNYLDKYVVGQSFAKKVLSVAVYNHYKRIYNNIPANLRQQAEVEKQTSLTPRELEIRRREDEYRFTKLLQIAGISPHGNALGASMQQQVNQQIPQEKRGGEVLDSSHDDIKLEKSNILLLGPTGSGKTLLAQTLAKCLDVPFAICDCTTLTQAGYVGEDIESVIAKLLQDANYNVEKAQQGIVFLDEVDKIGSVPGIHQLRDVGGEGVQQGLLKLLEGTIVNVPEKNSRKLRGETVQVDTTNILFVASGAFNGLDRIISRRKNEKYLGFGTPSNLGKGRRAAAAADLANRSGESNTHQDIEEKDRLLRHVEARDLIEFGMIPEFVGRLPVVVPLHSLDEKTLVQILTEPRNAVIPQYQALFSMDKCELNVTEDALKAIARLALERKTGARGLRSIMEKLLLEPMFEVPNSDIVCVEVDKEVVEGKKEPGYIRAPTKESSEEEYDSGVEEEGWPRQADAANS
UniProt Q13112, whole entry, looked up: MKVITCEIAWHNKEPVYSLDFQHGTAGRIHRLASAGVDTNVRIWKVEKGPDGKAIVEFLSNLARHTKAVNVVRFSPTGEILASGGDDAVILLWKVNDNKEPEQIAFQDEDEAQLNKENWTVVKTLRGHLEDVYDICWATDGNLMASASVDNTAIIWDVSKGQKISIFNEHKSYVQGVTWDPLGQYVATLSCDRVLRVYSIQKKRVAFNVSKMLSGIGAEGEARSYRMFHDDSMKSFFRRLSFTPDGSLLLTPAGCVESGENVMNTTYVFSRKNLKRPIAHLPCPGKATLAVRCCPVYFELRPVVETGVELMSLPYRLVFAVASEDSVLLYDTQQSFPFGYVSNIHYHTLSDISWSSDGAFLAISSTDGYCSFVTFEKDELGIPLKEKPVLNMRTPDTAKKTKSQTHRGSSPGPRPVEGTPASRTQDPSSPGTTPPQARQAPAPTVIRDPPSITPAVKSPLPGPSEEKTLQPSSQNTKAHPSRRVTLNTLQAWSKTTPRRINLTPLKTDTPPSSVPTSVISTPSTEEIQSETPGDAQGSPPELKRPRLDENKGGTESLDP
UniProt Q7LBR1: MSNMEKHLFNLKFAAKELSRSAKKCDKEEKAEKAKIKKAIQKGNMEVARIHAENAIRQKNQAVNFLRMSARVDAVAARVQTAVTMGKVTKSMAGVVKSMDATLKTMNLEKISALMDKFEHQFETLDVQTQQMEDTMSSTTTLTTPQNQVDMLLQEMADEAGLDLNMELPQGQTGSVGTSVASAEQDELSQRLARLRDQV
UniProt P06493, whole entry, looked up: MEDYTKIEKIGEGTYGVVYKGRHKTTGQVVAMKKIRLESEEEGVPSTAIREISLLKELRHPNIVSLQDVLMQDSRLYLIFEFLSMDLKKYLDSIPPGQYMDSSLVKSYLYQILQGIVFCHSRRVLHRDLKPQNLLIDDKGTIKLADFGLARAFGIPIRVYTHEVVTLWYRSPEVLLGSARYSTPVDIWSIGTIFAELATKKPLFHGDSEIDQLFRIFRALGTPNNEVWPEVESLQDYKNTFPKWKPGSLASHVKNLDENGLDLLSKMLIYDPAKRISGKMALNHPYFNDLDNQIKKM
UniProt Q14061: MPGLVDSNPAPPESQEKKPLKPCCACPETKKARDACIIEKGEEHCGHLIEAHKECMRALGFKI
UniProt P20674, whole entry: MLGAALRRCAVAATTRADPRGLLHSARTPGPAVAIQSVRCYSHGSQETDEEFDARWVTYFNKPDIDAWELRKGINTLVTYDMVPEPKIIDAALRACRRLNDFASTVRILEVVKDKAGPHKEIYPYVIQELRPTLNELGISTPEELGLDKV
UniProt Q14019: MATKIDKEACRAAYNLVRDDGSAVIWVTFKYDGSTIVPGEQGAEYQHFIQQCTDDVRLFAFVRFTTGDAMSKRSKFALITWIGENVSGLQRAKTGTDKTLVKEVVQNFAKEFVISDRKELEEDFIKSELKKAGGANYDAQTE
UniProt P24386: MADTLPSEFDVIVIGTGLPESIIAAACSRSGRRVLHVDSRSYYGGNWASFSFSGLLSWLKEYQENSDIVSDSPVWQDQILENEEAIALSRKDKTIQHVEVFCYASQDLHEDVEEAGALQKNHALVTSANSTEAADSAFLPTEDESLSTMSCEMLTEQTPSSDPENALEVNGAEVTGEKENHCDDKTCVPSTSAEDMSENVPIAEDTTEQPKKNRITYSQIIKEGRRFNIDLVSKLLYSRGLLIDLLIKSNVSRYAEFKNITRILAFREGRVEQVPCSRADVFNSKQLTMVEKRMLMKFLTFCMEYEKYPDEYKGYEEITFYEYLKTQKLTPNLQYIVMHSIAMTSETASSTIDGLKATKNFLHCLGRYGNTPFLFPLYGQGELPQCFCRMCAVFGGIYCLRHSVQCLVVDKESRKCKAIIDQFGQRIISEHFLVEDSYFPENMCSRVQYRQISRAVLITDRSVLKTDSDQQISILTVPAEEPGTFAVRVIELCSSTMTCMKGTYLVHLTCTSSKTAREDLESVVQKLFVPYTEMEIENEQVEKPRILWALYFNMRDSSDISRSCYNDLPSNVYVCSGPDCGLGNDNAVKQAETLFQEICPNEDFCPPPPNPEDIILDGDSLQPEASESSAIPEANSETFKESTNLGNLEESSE
UniProt O60508: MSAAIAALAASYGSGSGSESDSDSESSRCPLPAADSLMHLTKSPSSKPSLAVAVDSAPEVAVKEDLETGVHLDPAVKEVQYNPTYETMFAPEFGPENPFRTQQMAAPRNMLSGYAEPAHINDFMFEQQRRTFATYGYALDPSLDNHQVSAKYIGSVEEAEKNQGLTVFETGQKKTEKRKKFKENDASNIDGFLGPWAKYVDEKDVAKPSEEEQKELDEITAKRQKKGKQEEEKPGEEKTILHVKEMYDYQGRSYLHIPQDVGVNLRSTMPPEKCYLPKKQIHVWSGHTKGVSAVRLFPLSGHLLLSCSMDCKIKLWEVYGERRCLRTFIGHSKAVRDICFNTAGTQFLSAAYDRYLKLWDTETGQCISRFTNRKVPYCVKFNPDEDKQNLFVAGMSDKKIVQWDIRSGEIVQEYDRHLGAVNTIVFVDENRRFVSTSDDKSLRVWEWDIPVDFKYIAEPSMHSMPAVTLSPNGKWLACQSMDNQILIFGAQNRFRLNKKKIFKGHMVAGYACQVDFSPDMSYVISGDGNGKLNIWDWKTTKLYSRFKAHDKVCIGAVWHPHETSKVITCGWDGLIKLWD
UniProt O95232: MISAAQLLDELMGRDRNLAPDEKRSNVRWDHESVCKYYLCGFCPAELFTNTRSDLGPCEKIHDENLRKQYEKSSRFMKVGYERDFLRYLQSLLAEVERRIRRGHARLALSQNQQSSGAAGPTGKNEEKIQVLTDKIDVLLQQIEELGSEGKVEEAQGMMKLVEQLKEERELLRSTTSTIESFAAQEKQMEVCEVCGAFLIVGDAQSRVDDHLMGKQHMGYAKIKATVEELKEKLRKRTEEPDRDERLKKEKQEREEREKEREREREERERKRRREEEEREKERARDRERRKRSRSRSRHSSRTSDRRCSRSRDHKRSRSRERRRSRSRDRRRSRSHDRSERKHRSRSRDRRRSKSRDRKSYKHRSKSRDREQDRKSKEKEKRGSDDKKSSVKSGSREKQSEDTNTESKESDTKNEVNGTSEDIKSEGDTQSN

The targets below were run with COc1ccc(Cn2ccc3cc(C)c(C(=O)NO)cc32)cc1 (assay: dose-dependent thermal stabilisation call (2D-TPP, DLPTP, 10% FDR) (binary (1 = stabilised)); higher = stabilised by the compound). Conditions: system: HL-60 intact cells; concentration range 0.04-10 µM.
Protocol: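 2D thermal proteome profiling in intact HL-60 cells treated with BRD-3811 (0, 0.04, 0.29, 2, 10 uM) for 90 min at 37 C, then heated 3 min at one of 12 temperatures (42-63.9 C). Soluble protein was quantified by TMT10 MS. The value is the DLPTP call of the paper: dose-dependent thermal stabilisation over all temperatures at 10% FDR (F-test of a dose-response against a flat model); one experiment, one call per tested protein.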

| Target | dose-dependent thermal stabilisation call |
| --- | --- |
| COPG2 (UniProt Q9UBF2) | inactive: 0 |
| CD84 (UniProt Q9UIB8) | inactive: 0 |
| CEP290 (UniProt O15078) | inactive: 0 |
| COX6C (UniProt P09669) | inactive: 0 |
| CLPP (UniProt Q16740) | inactive: 0 |
| CD99L2 (UniProt Q8TCZ2) | inactive: 0 |
| CENPQ (UniProt Q7L2Z9) | inactive: 0 |
| CDC20 (UniProt Q12834) | inactive: 0 |
| CIRBP (UniProt Q14011) | inactive: 0 |
| CLIC4 (UniProt Q9Y696) | inactive: 0 |
| CDC42 (UniProt P60953) | inactive: 0 |
| CLEC5A (UniProt Q9NY25) | inactive: 0 |
| CHID1 (UniProt Q9BWS9) | inactive: 0 |
| CHAC2 (UniProt Q8WUX2) | inactive: 0 |
| COX6A1 (UniProt P12074) | inactive: 0 |
| CIT (UniProt O14578) | inactive: 0 |
| CDC25C (UniProt P30307) | inactive: 0 |
| CNOT4 (UniProt O95628) | inactive: 0 |

| Target | dose-dependent thermal stabilisation call |
| --- | --- |
| CENPJ (UniProt Q9HC77) | inactive: 0 |
| CLPX (UniProt O76031) | inactive: 0 |
| CHAF1B (UniProt Q13112) | inactive: 0 |
| CHMP1B (UniProt Q7LBR1) | inactive: 0 |
| CLEC12A (UniProt Q5QGZ9) | inactive: 0 |
| COPS4 (UniProt Q9BT78) | inactive: 0 |
| COG5 (UniProt Q9UP83) | inactive: 0 |
| CDC2 (UniProt P06493) | inactive: 0 |
| COX17 (UniProt Q14061) | inactive: 0 |
| CEP63 (UniProt Q96MT8) | inactive: 0 |
| COX5A (UniProt P20674) | inactive: 0 |
| COTL1 (UniProt Q14019) | inactive: 0 |
| COPS7A (UniProt Q9UBW8) | inactive: 0 |
| COMMD4 (UniProt Q9H0A8) | inactive: 0 |
| CHM (UniProt P24386) | inactive: 0 |
| CDC40 (UniProt O60508) | inactive: 0 |
| COG6 (UniProt Q9Y2V7) | inactive: 0 |
| CROP (UniProt O95232) | inactive: 0 |

A different layout for part of the listing above.
Target	dose-dependent thermal stabilisation call
CEP290 (UniProt O15078)	inactive: 0
CENPJ (UniProt Q9HC77)	inactive: 0
